Results of single-concentration screens

By UniProt entry, the sequences of proteins in these tests, tags left out. Residues count along the entry.
UniProt Q8IDJ8, 1-583: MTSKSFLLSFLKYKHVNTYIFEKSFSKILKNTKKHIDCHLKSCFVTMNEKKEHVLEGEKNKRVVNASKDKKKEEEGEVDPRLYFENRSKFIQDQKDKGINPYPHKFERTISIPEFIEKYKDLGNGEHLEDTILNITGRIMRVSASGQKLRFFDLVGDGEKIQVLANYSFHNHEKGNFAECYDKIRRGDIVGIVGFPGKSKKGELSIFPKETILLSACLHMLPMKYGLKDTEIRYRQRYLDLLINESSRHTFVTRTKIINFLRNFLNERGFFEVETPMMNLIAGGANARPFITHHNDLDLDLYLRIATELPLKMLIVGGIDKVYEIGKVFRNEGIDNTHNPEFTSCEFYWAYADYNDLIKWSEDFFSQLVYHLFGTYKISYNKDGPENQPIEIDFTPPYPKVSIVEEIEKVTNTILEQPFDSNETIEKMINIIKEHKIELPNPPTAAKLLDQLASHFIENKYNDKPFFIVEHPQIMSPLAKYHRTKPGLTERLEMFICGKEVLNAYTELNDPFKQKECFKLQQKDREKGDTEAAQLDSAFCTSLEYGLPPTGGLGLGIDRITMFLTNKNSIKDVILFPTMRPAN
UniProt P9WFT3, whole entry: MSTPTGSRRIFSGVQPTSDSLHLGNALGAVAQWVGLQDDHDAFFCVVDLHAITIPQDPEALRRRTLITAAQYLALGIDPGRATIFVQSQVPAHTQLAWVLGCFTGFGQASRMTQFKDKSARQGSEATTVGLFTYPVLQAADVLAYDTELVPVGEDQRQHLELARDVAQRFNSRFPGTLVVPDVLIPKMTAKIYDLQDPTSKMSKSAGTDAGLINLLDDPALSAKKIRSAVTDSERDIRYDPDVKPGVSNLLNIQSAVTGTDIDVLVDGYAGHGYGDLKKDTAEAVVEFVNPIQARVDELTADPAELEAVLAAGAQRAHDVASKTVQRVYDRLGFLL
UniProt P9WPC5, whole entry: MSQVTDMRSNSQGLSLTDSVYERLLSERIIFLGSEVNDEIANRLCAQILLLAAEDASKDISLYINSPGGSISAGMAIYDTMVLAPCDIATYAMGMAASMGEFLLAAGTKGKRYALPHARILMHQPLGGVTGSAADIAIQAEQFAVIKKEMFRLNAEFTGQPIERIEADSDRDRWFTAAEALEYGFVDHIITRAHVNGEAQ
UniProt P9WPC3, whole entry partner: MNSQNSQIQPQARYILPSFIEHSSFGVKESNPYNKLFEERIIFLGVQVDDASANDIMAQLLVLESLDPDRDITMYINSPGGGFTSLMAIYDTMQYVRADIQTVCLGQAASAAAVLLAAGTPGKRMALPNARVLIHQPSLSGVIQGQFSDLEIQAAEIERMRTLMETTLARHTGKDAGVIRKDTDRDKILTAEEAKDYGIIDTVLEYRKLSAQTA
UniProt Q4DA54, 1-478: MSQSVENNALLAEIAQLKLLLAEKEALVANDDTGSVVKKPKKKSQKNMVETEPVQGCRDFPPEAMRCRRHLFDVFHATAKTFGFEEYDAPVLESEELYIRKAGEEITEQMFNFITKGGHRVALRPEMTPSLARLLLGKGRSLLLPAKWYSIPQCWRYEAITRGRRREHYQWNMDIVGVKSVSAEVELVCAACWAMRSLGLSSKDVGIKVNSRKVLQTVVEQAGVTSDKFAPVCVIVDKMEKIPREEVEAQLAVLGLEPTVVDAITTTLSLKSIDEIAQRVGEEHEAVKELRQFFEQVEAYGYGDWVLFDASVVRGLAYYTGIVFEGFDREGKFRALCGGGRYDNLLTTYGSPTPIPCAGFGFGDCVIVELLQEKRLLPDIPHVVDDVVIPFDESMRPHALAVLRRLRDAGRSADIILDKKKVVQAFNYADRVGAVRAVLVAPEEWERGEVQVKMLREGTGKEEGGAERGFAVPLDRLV

Source: ChEMBL document CHEMBL3988442, “University of Dundee, Small-Polar-MMV Screening Library” (2021).

PfKRS1: 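Enzyme assay of the cytosolic lysyl-tRNA synthetase in 384-well plates, read by luminescence. Target: Lysine-tRNA ligase, Plasmodium falciparum 3D7 (UniProt Q8IDJ8). Compounds at 30 µM. Higher reads as stronger inhibition, judged from the few compounds that gave an IC50. About 69,000 compounds were tested under these conditions; 0.071% (about 49) showed 50% or more at least once.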
MtTrpRS: 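Enzyme assay of tryptophanyl-tRNA synthetase; the read-out is not stated. Target: Tryptophan-tRNA ligase, Mycobacterium tuberculosis (UniProt P9WFT3). Compounds at 10 µM. Direction is not recorded; retested compounds ran higher, which suggests that high means inhibition. Of about 65,000 compounds tested this way, about 64 (0.098%) reached 50% or more in at least one test.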
ClpP1P2: 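Protease assay of ClpP1P2, read by the AMC dye that it sets free. Target: ClpP1P2, Mycobacterium tuberculosis (UniProt P9WPC5 and UniProt P9WPC3). Compounds at 50 µM. Direction is inferred from only a few compounds that gave an IC50; most scored high, so higher reads as stronger inhibition. Most other retested compounds had strongly negative values. Of about 69,000 compounds tested this way, about 10 (0.015%) reached 50% or more in at least one test.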
TcHisRS: 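Enzyme assay of histidyl-tRNA synthetase; the read-out is not stated. Target: Histidine-tRNA ligase, Trypanosoma cruzi CL Brener (UniProt Q4DA54). Compounds at 30 µM. Direction is inferred from retests: higher values go with stronger inhibition. Of about 69,000 compounds tested this way, about 31 (0.045%) reached 50% or more in at least one test.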

Each number is a percent effect as filed.
The record does not define 0% and 100%; most values in the screen are far below 50% and negative numbers occur (in some assays of this library far below -100).
This is an unselected part of the compounds tested.

With NC(=O)c1cnc(NC2CCC(c3ccccc3)CC2)c(Cl)c1 (stereo unspecified) the screen gave PfKRS1: 0.4979%; MtTrpRS: 2.437%; ClpP1P2: 1.669%; TcHisRS: 9.091%.
With Cc1nn2cc(CNc3nccc(CCC(F)(F)F)n3)nc2s1 the screen gave PfKRS1: 4.373%; MtTrpRS: -4.706%; ClpP1P2: -0.1047%; TcHisRS: 6.077%.
With c1coc(COCc2ncn3c2CN(Cc2cccs2)CCC3)c1 the screen gave PfKRS1: 1.579%; MtTrpRS: -2.881%; ClpP1P2: -11.83%; TcHisRS: 8.867%.
With CC(C)(C)c1n[nH]c(C2CN(C(=O)c3cc(Cl)c[nH]3)CCO2)n1 (stereo unspecified) the screen gave PfKRS1: 4.028%; MtTrpRS: 1.165%; ClpP1P2: 0.3307%; TcHisRS: 0%.
With Cc1cn2c(=O)c(-c3ccnc(N[C@@H](C)CO)n3)cnc2s1 the screen gave PfKRS1: 3.118%; ClpP1P2: -75.72%; TcHisRS: 6.78%.
With COc1ccccc1C(=O)NC(C)CC(=O)O (stereo unspecified) the screen gave PfKRS1: 4.549%; MtTrpRS: 0.4873%; ClpP1P2: 1.225%; TcHisRS: -7.143%.
With O=C(Nc1ccccc1)C1CCCN(c2cc(-n3cncn3)ncn2)C1 (stereo unspecified) the screen gave PfKRS1: 1.415%; MtTrpRS: 2.66%; ClpP1P2: -6.106%; TcHisRS: 2.062%.
With Cc1cc(C(F)(F)F)nc(CCNC(C)Cn2nc(C)cc2C)n1 (stereo unspecified) the screen gave PfKRS1: -4.393%; MtTrpRS: 2.654%; ClpP1P2: 6.039%; TcHisRS: 4.95%.
With COc1ccnc(NCC2CN(C3CC3)CCO2)n1 (stereo unspecified) the screen gave PfKRS1: -3.458%; MtTrpRS: 3.804%; ClpP1P2: -1.073%; TcHisRS: -1.031%.
With N#Cc1ccc(F)c(CN2CCCC2Cn2cncn2)c1 (stereo unspecified) the screen gave PfKRS1: 5.211%; MtTrpRS: -0.6744%; ClpP1P2: -1.884%; TcHisRS: 6.952%.
With O=C(Nc1cnn(COc2ccc(F)cc2Cl)c1)C1CC1 the screen gave PfKRS1: 7.058%; MtTrpRS: 6.738%; ClpP1P2: -9.459%; TcHisRS: 0.8772%.
With O=C(CC1CCN(c2cccnn2)CC1)NCCO the screen gave PfKRS1: -0.3434%; MtTrpRS: -1.762%; ClpP1P2: -8.021%; TcHisRS: 6.513%.
With Cc1cccc(C(=O)N2C[C@@H]3OCCN(C(C)C)[C@@H]3C2)n1 the screen gave PfKRS1: -4.699%; MtTrpRS: 0.5247%; ClpP1P2: -4.405%; TcHisRS: 5.946%.
With CCc1cnc(N2CC3(CCN(Cc4ccsc4)C3)C2)nc1 the screen gave PfKRS1: -4.322%; MtTrpRS: 1.055%; ClpP1P2: 7.543%; TcHisRS: 6.011%.
With Cc1cc(C)n(CCC(=O)N2CCCC(n3nc(C)nc3C)C2)n1 (stereo unspecified) the screen gave PfKRS1: 2.011%; MtTrpRS: 1.356%; ClpP1P2: -7.665%; TcHisRS: 1.345%.
With CCn1cc2c(n1)CN(Cc1nccs1)CC2COCC1CC1 (stereo unspecified) the screen gave PfKRS1: 10.05%; MtTrpRS: 1.762%; ClpP1P2: -0.01355%; TcHisRS: 4.918%.
With Cc1ccc(C)c(C(NC(=O)C2CC2)c2cccnc2)c1 (stereo unspecified) the screen gave PfKRS1: -0.6657%; MtTrpRS: -1.654%; ClpP1P2: 2.624%; TcHisRS: 3.261%.
With CCc1n[nH]c(C2CN(C(=O)c3nc(C)ncc3Cl)CCO2)n1 (stereo unspecified) the screen gave PfKRS1: -0.03783%; MtTrpRS: -3.302%; ClpP1P2: -1.532%; TcHisRS: -1.141%.
With Cc1cc(CNC2(c3ccc(Cl)cc3)CC2)no1 the screen gave PfKRS1: 1.737%; MtTrpRS: -0.516%; ClpP1P2: 0.7184%; TcHisRS: 3.867%.
With O=C(N[C@@H]1CCC[C@@H](N2CCOCC2)[C@@H]1O)c1cc2ccccc2[nH]1 the screen gave PfKRS1: -0.6221%; MtTrpRS: -2.725%; ClpP1P2: 2.563%; TcHisRS: 1.493%.
With Cc1ccc(OCC(=O)NCC(C)C)nc1 the screen gave PfKRS1: 2.481%; MtTrpRS: 0.08224%; ClpP1P2: -7.092%; TcHisRS: -0.8264%.
With Cc1cccc(C)c1CNC1(CCO)CCOCC1 the screen gave PfKRS1: -0.3013%; MtTrpRS: 0.1032%; ClpP1P2: 3.421%; TcHisRS: 1.299%.
With CCOc1ccc(C(=O)N(Cc2cnn(C)c2)C(C)C)cc1 the screen gave PfKRS1: 4.548%; MtTrpRS: 0.8396%; ClpP1P2: 0.7407%; TcHisRS: 2.041%.
With O=C(c1ccncc1)N1CCC2(CC1)CCN(Cc1ccccn1)C2=O the screen gave PfKRS1: 5.805%; MtTrpRS: 0.9213%; ClpP1P2: 2.573%; TcHisRS: 5.6%.